Results on 2 molecules are retold here after paper PMC9980482.

Test [1] addresses His-SopF (Salmonella effector SopF expressed from pcDNA3.1-SopF-6*His-T2A-GFP) (Salmonella enterica serovar Typhimurium). The test can be described thus: co-IP; 293 T cells transfected with empty vector or pcDNA3.1-SopF-6*His-T2A-GFP for 48 h; His-tagged SopF immunoprecipitated from cell lysates, blot for endogenous PDK1.
The target in test [2] is SopF:His translocated by S. Typhimurium (STM-ΔsopF/psopF:His) (Salmonella enterica serovar Typhimurium SL1344). The test can be described thus: co-IP; Caco-2 cells infected with STM-ΔsopF/pBAD or STM-ΔsopF/psopF:His at MOI 100 for 2 hpi and 24 hpi; His-Tag monoclonal antibody and protein A/G Plus-Agarose, 4°C, five washes with PBS; blot for endogenous PDK1.

These are yes or no findings as the source states them, for the method shown. In cells and extracts the contact can be indirect.

B1: phosphoinositide-dependent protein kinase-1 (PDK1), endogenous in 293 T cells (protein, UniProt O15530 1-556)
chain: MARTTSQLYDAVPIQSSVVLCSCPSPSMVRTQTESSTPPGIPGGSRQGPAMDGTAAEPRPGAGSLQHAQPPPQPRKKRPEDFKFGKILGEGSFSTVVLARELATSREYAIKILEKRHIIKENKVPYVTRERDVMSRLDHPFFVKLYFTFQDDEKLYFGLSYAKNGELLKYIRKIGSFDETCTRFYTAEIVSALEYLHGKGIIHRDLKPENILLNEDMHIQITDFGTAKVLSPESKQARANSFVGTAQYVSPELLTEKSACKSSDLWALGCIIYQLVAGLPPFRAGNEYLIFQKIIKLEYDFPEKFFPKARDLVEKLLVLDATKRLGCEEMEGYGPLKAHPFFESVTWENLHQQTPPKLTAYLPAMSEDDEDCYGNYDNLLSQFGCMQVSSSSSSHSLSASDTGLPQRSGSNIEQYIHDLDSNSFELDLQFSEDEKRLLLEKQAGGNPWHQFVENNLILKMGPVDKRKGLFARRRQLLLTEGPHLYYVDPVNKVLKGEIPWSQELRPEAKNFKTFFVHTPNRTYYLMDPSGNAHKWCRKIQEVWRQRYQSHPDAAVQ
Take B1: the binding result in test [1] is “no binding”.

B2: phosphoinositide-dependent protein kinase-1 (PDK1), endogenous in Caco-2 cells (protein, UniProt O15530 1-556)
chain: B1 chain
With B2, the binding entry in test [2] was “no binding”.
